PubChem BioAssay AID1259308 – NCATS | 2017
Shown is an unselected part of about 59,000 deposited reagents. In the full data, about 1,510 (2.6%) are marked active. 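Calls use total luciferase alone and ignore viability, so some active siRNAs may act by altering cell number.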 A number with no mark means an inactive call. Reagents against one gene are numbered here. Not all columns of the deposit are shown.

Assay: 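Knock-downs that increase output of a recombinant reporter protein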 (primary screen)
System: human HEK293 embryonic kidney cells stably expressing firefly luciferase (HEK-CMV-Luc2-Hygro)
Reagent: single siRNA against human genes, 0.8 pmol siRNA per well
Duration: 72 h
Detection: 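Luciferase light (ONE-Glo) measured on one replicate plate set and viability (CellTiter-Glo) on the other, scaled to a negative control siRNA, with robust z-scores and luciferase per cell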
Direction: total luciferase, z-score and total luciferase, % of control: higher = more reporter protein produced
Call rule: 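Active when the median/MAD z-score for overall luciferase is greater than 3; a gene was taken forward for validation with new siRNAs if at least two of its three siRNAs passed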
Meaning of the calls: active = raised luciferase; inactive = no rise

MACO1 #1 | total luciferase, z-score = -0.122; total luciferase, % of control = 79.5
MACO1 #2 | total luciferase, z-score = 0.526; total luciferase, % of control = 92.4
MACO1 #3 | total luciferase, z-score = 0.351; total luciferase, % of control = 88.9
CORIN #1 | total luciferase, z-score = -1.96; total luciferase, % of control = 42.9
CORIN #2 | total luciferase, z-score = 1.74; total luciferase, % of control = 116
CORIN #3 | total luciferase, z-score = 0.303; total luciferase, % of control = 87.9
NTNG1 #1 | total luciferase, z-score = -0.588; total luciferase, % of control = 70.2
NTNG1 #2 | total luciferase, z-score = 0.252; total luciferase, % of control = 86.9
NTNG1 #3 | total luciferase, z-score = -0.463; total luciferase, % of control = 72.7
ARFIP1 #1 | total luciferase, z-score = -0.18; total luciferase, % of control = 78.3
ARFIP1 #2 | total luciferase, z-score = -2.11; total luciferase, % of control = 39.8
ARFIP1 #3 | total luciferase, z-score = 1.81; total luciferase, % of control = 118
ULK3 #1 | total luciferase, z-score = -1.66; total luciferase, % of control = 48.9
ULK3 #2 | total luciferase, z-score = 1.11; total luciferase, % of control = 104
ULK3 #3 | total luciferase, z-score = -0.341; total luciferase, % of control = 75.1
MXD1 #1 | total luciferase, z-score = 0.412; total luciferase, % of control = 90.1
MXD1 #2 | total luciferase, z-score = -0.714; total luciferase, % of control = 67.7
MXD1 #3 | total luciferase, z-score = 2.29; total luciferase, % of control = 127
KRTAP5-9 #1 | total luciferase, z-score = -0.936; total luciferase, % of control = 63.3
KRTAP5-9 #2 | total luciferase, z-score = -0.771; total luciferase, % of control = 66.6
KRTAP5-9 #3 | total luciferase, z-score = 1.43; total luciferase, % of control = 110
CASP8AP2 #1 | total luciferase, z-score = 5.5 (active); total luciferase, % of control = 191
CASP8AP2 #2 | total luciferase, z-score = 6.75 (active); total luciferase, % of control = 216
CASP8AP2 #3 | total luciferase, z-score = 3 (active); total luciferase, % of control = 142
RPS2P50 #1 | total luciferase, z-score = 0.191; total luciferase, % of control = 85.7
RPS2P50 #2 | total luciferase, z-score = 1.04; total luciferase, % of control = 103
RPS2P50 #3 | total luciferase, z-score = 0.106; total luciferase, % of control = 84
OPHN1 #1 | total luciferase, z-score = 1.03; total luciferase, % of control = 102
OPHN1 #2 | total luciferase, z-score = 0.989; total luciferase, % of control = 102
OPHN1 #3 | total luciferase, z-score = -0.1; total luciferase, % of control = 79.9
CFAP45 #1 | total luciferase, z-score = -0.83; total luciferase, % of control = 65.4
CFAP45 #2 | total luciferase, z-score = -0.922; total luciferase, % of control = 63.6
CFAP45 #3 | total luciferase, z-score = 0.822; total luciferase, % of control = 98.2
NOC3L #1 | total luciferase, z-score = -0.205; total luciferase, % of control = 77.8
NOC3L #2 | total luciferase, z-score = 0.268; total luciferase, % of control = 87.2
NOC3L #3 | total luciferase, z-score = 0.212; total luciferase, % of control = 86.1
CDH17 #1 | total luciferase, z-score = -0.729; total luciferase, % of control = 67.4
CDH17 #2 | total luciferase, z-score = 1.57; total luciferase, % of control = 113
CDH17 #3 | total luciferase, z-score = -0.846; total luciferase, % of control = 65.1
SOHLH1 #1 | total luciferase, z-score = 1.22; total luciferase, % of control = 106
SOHLH1 #2 | total luciferase, z-score = -0.507; total luciferase, % of control = 71.8
SOHLH1 #3 | total luciferase, z-score = -0.387; total luciferase, % of control = 74.2

An excerpt from above, showing only “total luciferase, % of control”:
MXD1 #2 = 67.7
MXD1 #3 = 127
KRTAP5-9 #1 = 63.3
KRTAP5-9 #2 = 66.6
KRTAP5-9 #3 = 110
CASP8AP2 #1 = 191 (active)
